Test results as given in patent US20250228800A1, “Treatment of nasal cavity inflammation and mucus hypersecretion” (priority 2024, published 2025).
Entries after “also recorded” stand apart in the source; their conditions may differ. Where two headings read alike, the source gives them in different places. At least one structure is not confirmed: it was looked up by name or label, or the drawing left a doubt.

Protein sequences, listed by entry. Tags and fused reporters are not part of them.
UniProt Q7Z2W7, whole entry, species assumed: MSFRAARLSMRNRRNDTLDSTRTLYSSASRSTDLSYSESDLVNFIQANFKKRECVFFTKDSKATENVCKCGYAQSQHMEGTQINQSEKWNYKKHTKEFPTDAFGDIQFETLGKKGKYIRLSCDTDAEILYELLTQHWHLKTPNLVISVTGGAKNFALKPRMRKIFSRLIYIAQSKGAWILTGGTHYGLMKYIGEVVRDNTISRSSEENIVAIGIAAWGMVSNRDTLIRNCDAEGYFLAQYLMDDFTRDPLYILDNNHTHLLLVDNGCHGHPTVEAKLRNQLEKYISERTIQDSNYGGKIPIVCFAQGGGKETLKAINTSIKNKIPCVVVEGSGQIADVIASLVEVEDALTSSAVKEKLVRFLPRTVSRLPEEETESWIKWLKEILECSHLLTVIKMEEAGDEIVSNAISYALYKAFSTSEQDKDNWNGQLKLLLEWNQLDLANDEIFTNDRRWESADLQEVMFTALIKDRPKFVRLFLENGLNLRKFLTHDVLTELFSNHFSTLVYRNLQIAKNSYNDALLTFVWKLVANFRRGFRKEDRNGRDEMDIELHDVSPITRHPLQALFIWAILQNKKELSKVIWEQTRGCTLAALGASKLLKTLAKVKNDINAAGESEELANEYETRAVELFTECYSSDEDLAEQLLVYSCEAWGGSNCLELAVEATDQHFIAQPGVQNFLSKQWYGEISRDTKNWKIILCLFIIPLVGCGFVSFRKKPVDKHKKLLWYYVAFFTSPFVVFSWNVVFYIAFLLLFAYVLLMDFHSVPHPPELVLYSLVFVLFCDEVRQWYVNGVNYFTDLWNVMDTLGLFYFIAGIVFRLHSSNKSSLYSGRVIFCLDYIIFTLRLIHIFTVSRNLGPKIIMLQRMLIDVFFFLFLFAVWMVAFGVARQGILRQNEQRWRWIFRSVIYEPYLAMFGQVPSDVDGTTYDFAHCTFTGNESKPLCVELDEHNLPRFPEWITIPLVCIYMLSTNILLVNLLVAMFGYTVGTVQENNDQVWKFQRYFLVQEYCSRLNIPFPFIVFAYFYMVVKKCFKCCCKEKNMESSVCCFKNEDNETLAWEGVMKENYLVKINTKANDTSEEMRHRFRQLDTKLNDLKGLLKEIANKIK
UniProt O75762, whole entry, species assumed: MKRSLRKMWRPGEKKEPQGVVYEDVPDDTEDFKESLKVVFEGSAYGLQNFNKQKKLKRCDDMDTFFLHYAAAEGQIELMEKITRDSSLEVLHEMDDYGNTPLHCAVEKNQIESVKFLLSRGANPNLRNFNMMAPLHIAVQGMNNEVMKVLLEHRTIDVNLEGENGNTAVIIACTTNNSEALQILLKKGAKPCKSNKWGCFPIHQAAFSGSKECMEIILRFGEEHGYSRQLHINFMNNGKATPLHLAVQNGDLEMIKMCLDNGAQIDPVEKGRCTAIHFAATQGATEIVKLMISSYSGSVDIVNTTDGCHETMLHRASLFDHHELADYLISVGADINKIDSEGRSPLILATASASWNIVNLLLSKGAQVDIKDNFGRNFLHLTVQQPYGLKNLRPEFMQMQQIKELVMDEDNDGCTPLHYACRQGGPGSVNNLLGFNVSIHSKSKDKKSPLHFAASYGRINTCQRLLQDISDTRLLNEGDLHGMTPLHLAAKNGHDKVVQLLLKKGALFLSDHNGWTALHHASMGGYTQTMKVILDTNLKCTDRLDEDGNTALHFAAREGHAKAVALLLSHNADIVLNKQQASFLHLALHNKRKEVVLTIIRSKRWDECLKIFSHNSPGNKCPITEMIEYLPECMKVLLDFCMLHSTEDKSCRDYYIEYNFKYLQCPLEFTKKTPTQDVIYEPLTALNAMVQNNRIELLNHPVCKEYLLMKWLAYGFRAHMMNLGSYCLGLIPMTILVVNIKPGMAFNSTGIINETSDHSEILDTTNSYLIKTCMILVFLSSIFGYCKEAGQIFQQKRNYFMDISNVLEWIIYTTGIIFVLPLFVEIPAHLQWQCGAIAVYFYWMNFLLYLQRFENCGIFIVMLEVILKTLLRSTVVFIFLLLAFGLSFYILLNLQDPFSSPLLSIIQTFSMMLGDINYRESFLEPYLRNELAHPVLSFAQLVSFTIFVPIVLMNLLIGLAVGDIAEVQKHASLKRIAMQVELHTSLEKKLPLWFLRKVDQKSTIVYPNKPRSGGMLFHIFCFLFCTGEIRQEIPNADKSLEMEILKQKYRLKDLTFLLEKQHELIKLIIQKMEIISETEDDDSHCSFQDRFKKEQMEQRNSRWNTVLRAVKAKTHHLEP

What was measured:
[1] = test system: TRPM8; experiment: Overall conclusion from compiled TRPM8 EC50 data; assay type: cell-based; conditions: overall conclusion from Table 4
[2] = biological target: TRPM8 (Homo sapiens, UniProt Q7Z2W7); experiment: Bioassay of FEMA 4557 (BUDA) on TRPM8, Prof. Lee laboratory, Duke University; assay type: cell-based
[3] = biological target: T1, TRPA1 (Homo sapiens, UniProt O75762); experiment: Bioassay in cells transfected with TRPA1, Prof. Lee laboratory, Duke University; assay type: cell-based
T1 construct: expressed in transfected cells

[4] = test system: tongue; experiment: Oral cavity screen, 15 mg of white crystals on dorsal surface of the tongue; assay type: in vivo, human
Procedure: The first screening tests conducted in this discovery to assess candidates that produce refreshing cooling in the oral cavity. Test agents, prepared as 15 mg of white crystals, were placed on the dorsal surface of the tongue. The chemical structures and identifying characteristics are in Table 1.

[5] = test system: philtrum skin; experiment: Philtrum skin assay of cooling; assay type: in vivo, human; conditions: 8% wt/vol gel on philtrum skin
Text: Wei (2012) proposed the use of the skin on the philtrum as a test site for cooling activity of chemicals. The philtrum is the midline groove above the upper lip border and vermilion and is the drug application site. The gel is placed on the philtrum with a cotton-tipped applicator up to the nasolabial folds and sometimes, but not deliberately, on the lower nostrils (subnasale). Cold receptors densely innervate the philtrum skin, second only to the surfaces of the eyeball, nasal surfaces, and anogenitalia. The lips also have a high density of “cold spots.” This is called the philtrum assay. The test substance is dissolved in a carrier, such as solvent, gel, or ointment and applied to the philtrum, a surface area of ˜10 to 12 cm2. The subject records sensations on the philtrum and environs on a scale of 0 to 3, as: 0=no changes in sensation, 1=a slight feeling of coolness, cold or tingling, 2=a clearcut feeling of coolness or cold and 3=a robust feeling of coolness and cold. The intervals for measurements are usually 0, 1, 3, 5 min after application, and at then 5 min or longer intervals thereafter until two successive zeros are obtained. Test substances are applied to the philtrum using a cotton-tipped applicator (Puritan Cotton-tipped applicators, or Q-Tips). The applicator tip is dipped into a reservoir bottle containing the liquid or semi-liquid (gel) test substance. […]

[6] = test system: skin; experiment: Case of canine skin allergy; assay type: in vivo
[7] = test system: nasal cavity; experiment: Study 1: NasoNeb nebulizer delivery to nasal cavity of subjects with rhinitis; assay type: in vivo, human
Procedure: Study 1. In this first study, a specialized nebulizer with an electronically controlled compressor was used to deliver FEMA 4557 to the nasal cavity of subjects with rhinitis. A typical dosage regimen was a 1.0 to 1.5% wt/vol solution (10 to 15 mg/mL) of FEMA 4557 over a 3 to 5 sec delivery period. […] No attempt was made to differentiate between delivered versus retained dose. The severity of rhinitis was quantified by gravimetric measurement of secretions and exudates from the nasal cavity (FIG. 15). Subjects were instructed to blow into a pre-weighed paper tissue and record the weight of the tissue after blowing. The tissue was inspected and marked as clear, with streaks of exudates, or dense gel. The nasal blowouts fell into three distinct categories of weights that were easy to recognize. […] The weight of the blowouts provides an objective index of nasal cavity inflammation. Nasal secretions were inhibited by topical administration of FEMA 4557, dissolved at 15 mg/ml in an ethanol, polysorbate 80, and saline mixture (FIG. 16). A Nasoneb® apparatus delivered FEMA 4557 into the nasal cavity (FIG. 13). The test substance was sprayed into the nasal cavity for 5 sec at t=0, 2, and 5 hr. The data points were fitted by linear regression (GraphPad Prism), and the 10-hr secretion was measured as ([…]). […]

[8] = test system: nasal cavity; experiment: Study 3: rinse solution (NeilMed Sinus Rinse) in subjects with rhinitis; assay type: in vivo, human; conditions: 1 mg/ml rinse, average net dose 1.8 mg, four test subjects
[9] = test system: skin
[10] = biological target: T1, TRPA1; conditions: reported by Johnson et al., 2017; not confirmed by applicant; cited from earlier work

For `CCNC(=O)C(CC)(C(C)C)C(C)C` [FEMA 4557, N-ethyl-2,2-diisopropyl butanamide], the “potency relative to menthol (less potent)” value [1] was “⅕ to 1/10”, the “less potent than l-menthol” value ([2]; FIG. 3) was “about 30 ×” and the “activity on TRPM8 as % of the activity of l-menthol” value ([2]; further experiments by the applicant) was 10%. For the same molecule, the “activity on TRPA1” value [3] was “absence of activity”, the “Effects of 15 mg on tongue (sensation)” value [4] was “stinging, freezing, and painful cold on the throat; also recorded: potent stinging cold on the tongue” and the “Effects of 15 mg on tongue (sensation)” value ([4]; listed as 4557) was “stinging, painful freezing cold in throat”. The “Comments (sensation)” value [5] was “icy cold sensations, prolonged cooling, anti-itch”, the “signs of skin irritation” value [6] was “reducing the signs of skin irritation” and the “rhinitis symptoms (subject-reported)” value ([7]; 1.0 to 1.5% wt/vol, two to three daily activations for three to five days) was “relieved symptoms”. The “duration of beneficial effects” value ([7]; after a single delivery) was “about six”, the “rhinitis symptoms of stuffiness and excess phlegm” value [8] was “effectively reduced the rhinitis symptoms of stuffiness and excess phlegm” and the itch of urticaria ([9]; 16% wt/vol gel) was “controlled the itch”. The “pain, redness and swelling of burn on hand” value ([9]; 20% solution applied once, 15 min after burn) was “pain together with redness and swelling rapidly diminished and was not noticeable after 5 hr”, the “pain from bumble bee sting” value ([9]; 32% solution on finger, half an hour after sting) was “pain in the middle finger was converted to an intense itch within several minutes” and the “skin inflammatory response to flea bites” value ([9]; 32% solution, single application) was “redness, swelling, and itch significantly diminishes”. For the same molecule, the “treatment of skin dysesthesia (insect bites, skin allergies, thermal injury)” value ([9]; topical gel on skin) was “effectively treated skin dysesthesia” and the “activity on TRPA1” value [10] was “activates TRPA1”.
